PubChem BioAssay AID1259322 – Peter MacCallum Cancer Centre | 2017
Screen: 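Kinase knock-downs reducing the TRPV4 calcium plateau after PAR2 stimulation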 (follow-up of hits). Cell system: human HEK293 cells with stable inducible TRPV4. Reagent: single siRNA against human genes. Conditions: PAR2 activation; agonist identity, dose and timing not stated. Measured: 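Fura-2 imaging of cytosolic calcium over time, first peak marking PAR2 and later plateau marking TRPV4 opening; both relative to mock on each plate, mean of two plates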. Direction: TRPV4 plateau calcium, % of mock: higher = stronger PAR2-dependent TRPV4 calcium entry; PAR2 peak calcium, % of mock: higher = stronger direct PAR2 calcium response. Hit rule: 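Scored active if TRPV4 plateau drops under 90% of mock while PAR2 peak is kept above 79% of mock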.
This is an unselected part of 208 deposited reagents. In the full data, 72 (35%) were called active. 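Four separate siRNAs per kinase gene, 52 genes in all; PAR2 agonist unnamed, with its dose and timing unknown.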 Unmarked entries are inactive. Reagents against one gene are numbered here. Reagent sequences are not shown. Not stated in the record: the amount of reagent, the time to read-out.

no.	Target gene	siRNA no.	TRPV4 plateau calcium, % of mock	PAR2 peak calcium, % of mock
1	TNIK	1	80.4 (active)	90.4
2	TNIK	2	86.1	77
3	TNIK	3	94	101
4	TNIK	4	94.5	87.5
5	SRPK1	1	95.3	87.4
6	SRPK1	2	83.8 (active)	97.5
7	SRPK1	3	96.7	98.4
8	SRPK1	4	98.1	101
9	PRPS1	1	102	97.3
10	PRPS1	2	63.4	58.7
11	PRPS1	3	82 (active)	88.9
12	PRPS1	4	88.7 (active)	84
13	PIK3C3	1	70.4	70
14	PIK3C3	2	82.2 (active)	102
15	PIK3C3	3	68.9	69.5
16	PIK3C3	4	99.6	94.8
17	PIK3C2A	1	85.2 (active)	91.2
18	PIK3C2A	2	74.3	77.7
19	PIK3C2A	3	71.7	66.3
20	PIK3C2A	4	61.5	58.3
21	FYN	1	93.8	103
22	FYN	2	78.5 (active)	92.7
23	FYN	3	70.6	75.5
24	FYN	4	75.6	70.2
25	CDK15	1	71.6	73.2
26	CDK15	2	107	101
27	CDK15	3	89.6 (active)	88.1
28	CDK15	4	93.5	96.6
29	NEK7	1	86.2 (active)	83.5
30	NEK7	2	94.5	99.8
31	NEK7	3	102	99.3
32	NEK7	4	71	66.5
33	MAPK9	1	97.6	102
34	MAPK9	2	92.8	92.2
35	MAPK9	3	81.3 (active)	92.9
36	MAPK9	4	98.7	110
37	CDKL5	1	100	98
38	CDKL5	2	96.3	84
39	CDKL5	3	103	103
40	CDKL5	4	85.9 (active)	98.1
41	MAST1	1	87.8	86.4
42	MAST1	2	85.1 (active)	94.5
43	MAST1	3	84.1	88.2
44	MAST1	4	76.5 (active)	93.6
45	WNK4	1	70.8 (active)	83.9
46	WNK4	2	82.3 (active)	101
47	WNK4	3	87.4 (active)	101
48	WNK4	4	78.4	75.3
49	NEK2	1	98	93.8
50	NEK2	2	78.9 (active)	81.4
51	NEK2	3	68.9	67.4
52	NEK2	4	76.2 (active)	80.6
53	PTK2	1	105	95.5
54	PTK2	2	95.6	99.5
55	PTK2	3	84.6 (active)	85.1
56	PTK2	4	106	96.7
57	PRKX	1	90.9	102
58	PRKX	2	103	109
59	PRKX	3	106	101
60	PRKX	4	70.2 (active)	84.6
61	LIMK2	1	89.2 (active)	102
62	LIMK2	2	72.4 (active)	79.6
63	LIMK2	3	79.1	72.3
64	LIMK2	4	96.8	102

No new results follow: 13 of the entries above.
no.	Target gene	siRNA no.	TRPV4 plateau calcium, % of mock	PAR2 peak calcium, % of mock
7	SRPK1	3	96.7	98.4
8	SRPK1	4	98.1	101
9	PRPS1	1	102	97.3
10	PRPS1	2	63.4	58.7
11	PRPS1	3	82 (active)	88.9
12	PRPS1	4	88.7 (active)	84
13	PIK3C3	1	70.4	70
14	PIK3C3	2	82.2 (active)	102
15	PIK3C3	3	68.9	69.5
16	PIK3C3	4	99.6	94.8
17	PIK3C2A	1	85.2 (active)	91.2
18	PIK3C2A	2	74.3	77.7
19	PIK3C2A	3	71.7	66.3

Additional records follow:
no.	Target gene	siRNA no.	TRPV4 plateau calcium, % of mock	PAR2 peak calcium, % of mock
65	RPS6KB1	1	93.5	95.6
66	RPS6KB1	2	117	113
67	RPS6KB1	3	92.1	99.6
68	RPS6KB1	4	104	96
69	STRADA	1	84.7 (active)	96.4
70	STRADA	2	79.2 (active)	79.1
71	STRADA	3	63.2	75.9
72	STRADA	4	68	70.3
73	KSR1	1	86.1 (active)	96
74	KSR1	2	95.1	106
75	KSR1	3	75.9	60.1
76	KSR1	4	81.2	76.7
77	SRMS	1	70.3 (active)	80.1
78	SRMS	2	91.3	82.5
79	SRMS	3	93	107
80	SRMS	4	75.2 (active)	93.3
81	ITPK1	1	54.8	60.2
82	ITPK1	2	80.1 (active)	92.5
83	ITPK1	3	72.2 (active)	89.5
84	ITPK1	4	83.2 (active)	95
85	HK2	1	60	58.7
86	HK2	2	81.8 (active)	84.7
87	HK2	3	101	98.1
88	HK2	4	81.4 (active)	90.2
89	FGFR4	1	82.2 (active)	86.9
90	FGFR4	2	55.6	62.6
91	FGFR4	3	91.5	101
92	FGFR4	4	65.5	74.8
93	BUB1	1	73.4	76.6
94	BUB1	2	70.3 (active)	82.3
95	BUB1	3	74 (active)	86.2
96	BUB1	4	70.8 (active)	81.3
97	PRKAB2	1	69.2	68.1
98	PRKAB2	2	87 (active)	95.9
99	PRKAB2	3	57.1	72.8
100	PRKAB2	4	85.7 (active)	90.9
101	AAK1	1	80.1 (active)	87.3
102	AAK1	2	97.5	89.7
103	AAK1	3	99.9	105
104	AAK1	4	112	100
105	PDK3	1	94.5	95.3
106	PDK3	2	79.9 (active)	82.7
107	PDK3	3	89.8 (active)	97.9
108	PDK3	4	99.6	99.3
